Paper PMC6851102
No constants are given. Whether binding was seen depends on the method and setting. In cells and extracts the contact can be indirect. A yes stands for co-enrichment or nearness to the bait. Other partners may have been found. Sequences can lack the tags named with a protein. Values belong to the molecule of their own block, whether it stands above or below them.

Sequences of proteins named here, by UniProt entry; tags and fusion partners are left off.
UniProt Q8WXI9: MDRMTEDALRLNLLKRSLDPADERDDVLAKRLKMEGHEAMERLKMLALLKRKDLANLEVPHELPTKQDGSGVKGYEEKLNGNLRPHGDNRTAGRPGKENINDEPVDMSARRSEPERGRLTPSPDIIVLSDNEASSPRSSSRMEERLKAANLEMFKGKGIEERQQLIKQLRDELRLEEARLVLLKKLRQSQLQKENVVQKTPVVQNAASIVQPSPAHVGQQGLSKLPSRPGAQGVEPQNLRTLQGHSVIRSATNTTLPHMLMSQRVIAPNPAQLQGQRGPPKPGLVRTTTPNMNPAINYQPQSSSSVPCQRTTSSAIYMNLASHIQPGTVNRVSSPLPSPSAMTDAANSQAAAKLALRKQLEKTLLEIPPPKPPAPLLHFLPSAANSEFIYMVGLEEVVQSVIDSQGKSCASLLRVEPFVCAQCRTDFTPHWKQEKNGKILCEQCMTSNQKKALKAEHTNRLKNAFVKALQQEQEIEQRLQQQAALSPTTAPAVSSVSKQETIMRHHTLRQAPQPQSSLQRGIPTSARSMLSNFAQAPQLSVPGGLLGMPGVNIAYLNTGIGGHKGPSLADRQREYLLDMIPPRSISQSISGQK
UniProt Q9UBB5: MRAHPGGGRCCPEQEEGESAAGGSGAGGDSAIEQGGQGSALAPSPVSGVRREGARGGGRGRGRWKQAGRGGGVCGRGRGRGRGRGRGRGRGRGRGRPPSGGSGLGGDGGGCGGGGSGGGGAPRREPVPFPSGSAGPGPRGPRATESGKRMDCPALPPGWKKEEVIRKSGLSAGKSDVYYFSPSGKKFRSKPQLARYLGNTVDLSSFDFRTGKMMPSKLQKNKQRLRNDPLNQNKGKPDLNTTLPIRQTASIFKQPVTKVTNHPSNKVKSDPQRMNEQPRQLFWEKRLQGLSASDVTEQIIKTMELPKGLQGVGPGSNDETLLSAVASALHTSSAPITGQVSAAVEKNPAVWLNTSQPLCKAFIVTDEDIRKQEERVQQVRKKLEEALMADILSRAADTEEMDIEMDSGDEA
UniProt Q9HCK8: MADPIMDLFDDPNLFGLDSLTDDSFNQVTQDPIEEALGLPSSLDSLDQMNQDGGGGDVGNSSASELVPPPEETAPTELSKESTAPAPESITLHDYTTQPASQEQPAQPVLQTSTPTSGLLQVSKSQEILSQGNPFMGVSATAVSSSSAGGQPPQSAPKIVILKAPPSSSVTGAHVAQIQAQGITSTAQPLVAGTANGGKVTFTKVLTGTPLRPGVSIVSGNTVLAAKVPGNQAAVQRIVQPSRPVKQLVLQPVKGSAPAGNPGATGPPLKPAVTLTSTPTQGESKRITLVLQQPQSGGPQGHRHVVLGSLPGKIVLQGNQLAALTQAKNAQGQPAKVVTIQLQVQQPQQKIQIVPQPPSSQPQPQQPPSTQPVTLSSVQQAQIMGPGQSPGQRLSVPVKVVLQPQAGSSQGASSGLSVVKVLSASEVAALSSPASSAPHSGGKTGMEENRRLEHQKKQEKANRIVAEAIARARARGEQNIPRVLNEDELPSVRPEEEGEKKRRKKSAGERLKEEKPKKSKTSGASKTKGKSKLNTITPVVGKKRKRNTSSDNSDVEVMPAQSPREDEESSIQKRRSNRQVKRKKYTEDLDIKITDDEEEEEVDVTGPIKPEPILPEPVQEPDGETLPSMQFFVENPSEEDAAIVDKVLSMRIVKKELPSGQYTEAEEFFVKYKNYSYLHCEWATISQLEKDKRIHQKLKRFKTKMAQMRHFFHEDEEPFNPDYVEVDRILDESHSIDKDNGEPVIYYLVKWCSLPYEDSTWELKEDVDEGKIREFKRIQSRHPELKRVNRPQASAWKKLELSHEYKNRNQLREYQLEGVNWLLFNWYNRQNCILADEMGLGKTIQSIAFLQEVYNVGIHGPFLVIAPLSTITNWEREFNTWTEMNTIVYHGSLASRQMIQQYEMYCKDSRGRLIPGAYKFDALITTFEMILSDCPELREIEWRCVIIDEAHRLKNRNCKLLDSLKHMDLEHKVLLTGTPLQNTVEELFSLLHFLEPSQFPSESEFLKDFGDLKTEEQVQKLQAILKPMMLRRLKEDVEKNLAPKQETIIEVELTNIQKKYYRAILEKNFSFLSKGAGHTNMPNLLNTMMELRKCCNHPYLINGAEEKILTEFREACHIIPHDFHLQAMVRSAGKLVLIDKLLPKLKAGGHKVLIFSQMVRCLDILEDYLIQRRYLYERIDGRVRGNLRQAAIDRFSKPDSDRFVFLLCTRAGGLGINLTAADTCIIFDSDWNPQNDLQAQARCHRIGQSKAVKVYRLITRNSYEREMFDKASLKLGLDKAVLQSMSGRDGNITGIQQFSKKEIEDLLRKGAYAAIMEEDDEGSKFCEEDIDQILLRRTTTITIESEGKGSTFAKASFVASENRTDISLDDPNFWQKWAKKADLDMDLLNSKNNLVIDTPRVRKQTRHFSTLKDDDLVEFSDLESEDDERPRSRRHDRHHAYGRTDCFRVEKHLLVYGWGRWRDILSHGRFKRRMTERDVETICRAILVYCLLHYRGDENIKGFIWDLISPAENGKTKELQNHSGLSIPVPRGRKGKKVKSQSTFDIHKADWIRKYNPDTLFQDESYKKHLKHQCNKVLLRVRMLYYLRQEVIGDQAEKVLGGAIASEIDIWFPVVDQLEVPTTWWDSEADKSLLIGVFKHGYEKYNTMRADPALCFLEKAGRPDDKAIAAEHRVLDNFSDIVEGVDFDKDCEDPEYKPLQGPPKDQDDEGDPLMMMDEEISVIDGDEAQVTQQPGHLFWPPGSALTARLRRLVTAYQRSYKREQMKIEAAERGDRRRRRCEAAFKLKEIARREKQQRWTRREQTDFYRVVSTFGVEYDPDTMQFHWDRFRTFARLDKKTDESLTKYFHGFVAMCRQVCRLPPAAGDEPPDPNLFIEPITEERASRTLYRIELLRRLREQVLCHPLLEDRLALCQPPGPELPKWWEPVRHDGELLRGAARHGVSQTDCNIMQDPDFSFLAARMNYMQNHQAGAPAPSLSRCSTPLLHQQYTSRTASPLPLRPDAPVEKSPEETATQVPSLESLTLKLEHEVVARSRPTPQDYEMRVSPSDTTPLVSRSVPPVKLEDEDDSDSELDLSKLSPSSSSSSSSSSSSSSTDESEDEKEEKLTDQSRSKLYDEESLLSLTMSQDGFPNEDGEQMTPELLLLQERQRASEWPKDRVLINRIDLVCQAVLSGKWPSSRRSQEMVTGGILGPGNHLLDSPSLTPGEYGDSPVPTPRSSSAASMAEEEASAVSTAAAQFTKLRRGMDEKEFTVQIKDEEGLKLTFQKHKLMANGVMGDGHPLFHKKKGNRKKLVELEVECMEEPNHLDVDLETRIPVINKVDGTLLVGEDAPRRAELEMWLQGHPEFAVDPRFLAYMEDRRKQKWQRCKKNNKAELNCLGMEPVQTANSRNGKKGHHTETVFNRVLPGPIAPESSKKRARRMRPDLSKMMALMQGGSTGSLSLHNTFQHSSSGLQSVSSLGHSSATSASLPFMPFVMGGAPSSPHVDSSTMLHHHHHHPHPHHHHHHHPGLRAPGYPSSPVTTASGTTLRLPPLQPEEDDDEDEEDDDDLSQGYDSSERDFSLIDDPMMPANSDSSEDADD
UniProt O15397: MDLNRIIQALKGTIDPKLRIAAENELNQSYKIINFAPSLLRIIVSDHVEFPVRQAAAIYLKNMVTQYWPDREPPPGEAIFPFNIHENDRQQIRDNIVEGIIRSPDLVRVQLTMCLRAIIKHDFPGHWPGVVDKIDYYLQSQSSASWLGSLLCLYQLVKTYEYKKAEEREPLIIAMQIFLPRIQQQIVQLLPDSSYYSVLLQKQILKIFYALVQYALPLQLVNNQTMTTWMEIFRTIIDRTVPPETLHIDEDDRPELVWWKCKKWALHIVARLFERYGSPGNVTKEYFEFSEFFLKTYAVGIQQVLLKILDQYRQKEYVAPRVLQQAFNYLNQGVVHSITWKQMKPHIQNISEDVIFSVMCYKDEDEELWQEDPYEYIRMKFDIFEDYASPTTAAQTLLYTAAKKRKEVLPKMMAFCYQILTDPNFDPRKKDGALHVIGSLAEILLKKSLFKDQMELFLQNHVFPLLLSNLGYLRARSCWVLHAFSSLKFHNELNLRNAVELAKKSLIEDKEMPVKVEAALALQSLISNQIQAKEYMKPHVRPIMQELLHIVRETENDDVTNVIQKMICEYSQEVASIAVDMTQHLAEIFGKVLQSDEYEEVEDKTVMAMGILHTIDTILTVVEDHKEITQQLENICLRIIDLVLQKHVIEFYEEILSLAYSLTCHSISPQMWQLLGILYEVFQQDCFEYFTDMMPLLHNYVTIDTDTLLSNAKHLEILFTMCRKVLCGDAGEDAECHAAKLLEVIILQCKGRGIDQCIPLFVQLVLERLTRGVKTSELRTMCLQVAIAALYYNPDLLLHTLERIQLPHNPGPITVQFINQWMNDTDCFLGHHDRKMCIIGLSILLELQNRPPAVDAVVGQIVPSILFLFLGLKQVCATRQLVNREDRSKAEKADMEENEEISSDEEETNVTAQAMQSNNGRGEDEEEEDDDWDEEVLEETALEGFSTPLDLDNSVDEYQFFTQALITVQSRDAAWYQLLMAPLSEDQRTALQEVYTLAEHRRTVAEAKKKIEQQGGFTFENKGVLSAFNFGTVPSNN
UniProt Q8TDI0: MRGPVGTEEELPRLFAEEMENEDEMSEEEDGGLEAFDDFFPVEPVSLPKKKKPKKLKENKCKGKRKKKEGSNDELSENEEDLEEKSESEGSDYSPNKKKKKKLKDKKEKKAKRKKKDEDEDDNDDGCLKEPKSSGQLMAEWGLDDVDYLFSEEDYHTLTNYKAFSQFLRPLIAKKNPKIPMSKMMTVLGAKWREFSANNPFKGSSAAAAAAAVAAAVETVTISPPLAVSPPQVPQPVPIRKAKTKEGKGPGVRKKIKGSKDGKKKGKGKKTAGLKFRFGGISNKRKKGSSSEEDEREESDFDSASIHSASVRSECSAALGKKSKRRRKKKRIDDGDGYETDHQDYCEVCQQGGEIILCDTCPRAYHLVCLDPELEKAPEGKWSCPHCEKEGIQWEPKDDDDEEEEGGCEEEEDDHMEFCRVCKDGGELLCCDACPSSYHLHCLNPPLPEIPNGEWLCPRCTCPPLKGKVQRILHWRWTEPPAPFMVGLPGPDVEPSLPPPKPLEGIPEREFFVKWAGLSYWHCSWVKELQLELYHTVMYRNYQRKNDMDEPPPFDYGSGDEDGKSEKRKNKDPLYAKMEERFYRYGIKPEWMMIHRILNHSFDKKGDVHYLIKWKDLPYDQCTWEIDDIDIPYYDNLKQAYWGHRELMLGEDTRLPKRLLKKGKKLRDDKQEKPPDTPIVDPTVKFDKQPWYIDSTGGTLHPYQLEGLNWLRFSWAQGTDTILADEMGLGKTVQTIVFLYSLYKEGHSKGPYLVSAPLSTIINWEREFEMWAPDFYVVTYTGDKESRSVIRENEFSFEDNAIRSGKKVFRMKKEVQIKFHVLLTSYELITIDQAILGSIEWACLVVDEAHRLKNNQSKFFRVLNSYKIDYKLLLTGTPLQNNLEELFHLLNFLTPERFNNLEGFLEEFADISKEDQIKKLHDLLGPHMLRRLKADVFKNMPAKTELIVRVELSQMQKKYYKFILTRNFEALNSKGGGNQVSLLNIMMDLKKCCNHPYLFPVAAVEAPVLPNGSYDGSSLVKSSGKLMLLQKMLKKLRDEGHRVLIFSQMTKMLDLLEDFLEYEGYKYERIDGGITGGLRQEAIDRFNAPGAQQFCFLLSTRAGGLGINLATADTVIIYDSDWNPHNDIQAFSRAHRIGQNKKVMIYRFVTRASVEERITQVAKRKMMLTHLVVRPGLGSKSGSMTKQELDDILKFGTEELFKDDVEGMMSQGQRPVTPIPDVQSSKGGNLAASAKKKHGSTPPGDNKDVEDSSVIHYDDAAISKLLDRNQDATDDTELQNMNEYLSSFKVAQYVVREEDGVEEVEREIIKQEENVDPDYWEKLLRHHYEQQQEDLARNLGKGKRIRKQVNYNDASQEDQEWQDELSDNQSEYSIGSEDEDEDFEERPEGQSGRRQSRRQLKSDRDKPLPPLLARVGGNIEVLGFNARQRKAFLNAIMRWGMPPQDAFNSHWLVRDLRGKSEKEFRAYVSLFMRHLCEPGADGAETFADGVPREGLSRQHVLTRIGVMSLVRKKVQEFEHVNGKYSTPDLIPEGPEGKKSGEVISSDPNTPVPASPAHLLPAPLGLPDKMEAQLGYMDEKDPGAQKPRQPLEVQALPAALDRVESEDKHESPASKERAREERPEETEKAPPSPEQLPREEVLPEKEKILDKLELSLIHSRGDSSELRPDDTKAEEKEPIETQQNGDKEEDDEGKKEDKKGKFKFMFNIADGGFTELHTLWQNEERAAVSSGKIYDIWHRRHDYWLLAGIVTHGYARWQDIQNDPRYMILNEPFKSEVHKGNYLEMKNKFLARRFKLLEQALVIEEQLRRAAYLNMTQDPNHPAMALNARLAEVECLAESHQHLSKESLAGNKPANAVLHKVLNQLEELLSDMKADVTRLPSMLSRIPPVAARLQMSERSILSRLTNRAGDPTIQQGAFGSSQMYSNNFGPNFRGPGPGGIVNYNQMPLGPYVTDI

Legend:
Test in all cases: proximity labelling; BioID: FlagBirA*-tagged human ZEB1 (N- or C-terminal tag) stably in HEK293 Flp-In; tetracycline, biotin and MG-132; biotinylated proteins isolated with streptavidin-sepharose, trypsin, nLC-ESI-MS/MS; SAINT against cells with the FlagBirA* tag alone
[1] = target: T1, FlagBirA*-ZEB1 (human ZEB1 with an N-terminal FlagBirA* tag) (human) (UniProt P37275)
T1 sequence: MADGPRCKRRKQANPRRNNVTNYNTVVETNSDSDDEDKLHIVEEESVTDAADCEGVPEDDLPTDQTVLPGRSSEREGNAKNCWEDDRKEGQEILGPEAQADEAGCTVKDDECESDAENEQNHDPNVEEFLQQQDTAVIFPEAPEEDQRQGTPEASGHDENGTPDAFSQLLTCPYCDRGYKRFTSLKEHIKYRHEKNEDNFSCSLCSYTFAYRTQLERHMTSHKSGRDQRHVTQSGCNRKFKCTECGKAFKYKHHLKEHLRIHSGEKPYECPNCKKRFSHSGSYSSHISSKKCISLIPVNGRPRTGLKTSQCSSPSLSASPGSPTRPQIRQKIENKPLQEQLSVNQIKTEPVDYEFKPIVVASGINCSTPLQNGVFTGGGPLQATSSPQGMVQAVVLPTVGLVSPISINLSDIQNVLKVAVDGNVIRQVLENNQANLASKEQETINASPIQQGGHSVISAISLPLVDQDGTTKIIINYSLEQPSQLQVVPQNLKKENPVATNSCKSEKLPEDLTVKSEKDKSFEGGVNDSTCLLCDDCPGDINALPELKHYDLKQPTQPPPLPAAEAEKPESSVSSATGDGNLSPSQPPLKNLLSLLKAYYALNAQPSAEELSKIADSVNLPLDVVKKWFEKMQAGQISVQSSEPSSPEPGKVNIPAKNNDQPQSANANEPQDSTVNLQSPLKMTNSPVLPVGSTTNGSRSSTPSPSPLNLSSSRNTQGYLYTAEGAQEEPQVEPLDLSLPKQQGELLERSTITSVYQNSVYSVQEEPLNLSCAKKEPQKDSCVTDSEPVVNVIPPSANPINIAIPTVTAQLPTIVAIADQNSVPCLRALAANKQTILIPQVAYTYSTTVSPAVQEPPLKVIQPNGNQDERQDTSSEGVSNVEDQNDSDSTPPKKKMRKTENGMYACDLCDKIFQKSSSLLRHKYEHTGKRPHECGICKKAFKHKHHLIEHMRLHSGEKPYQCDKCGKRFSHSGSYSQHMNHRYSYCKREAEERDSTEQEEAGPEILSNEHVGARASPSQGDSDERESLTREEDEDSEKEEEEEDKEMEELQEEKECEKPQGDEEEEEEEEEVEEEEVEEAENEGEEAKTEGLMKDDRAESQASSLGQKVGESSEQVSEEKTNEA

[2] = target: T2, ZEB1-FlagBirA* (human ZEB1 with a C-terminal FlagBirA* tag) (human) (UniProt P37275)
T2 sequence: T1 sequence

[3] = target: T3, FlagBirA*-ZEB1 (human ZEB1 with an N-terminal FlagBirA* tag) (human), P37275; conditions: remark: other sources report otherwise
T3 chain: T1 sequence

[4] = target: T4, ZEB1-FlagBirA* (human ZEB1 with a C-terminal FlagBirA* tag) (human), P37275; conditions: remark: other sources report otherwise
T4 chain: T1 sequence

binding [1]: binds
binding [2]: binds
Molecule: GATAD2B, human, endogenous (from UniProt Q8WXI9 1-593)

binding [1]: binds
Molecule: MBD2, human, endogenous (from UniProt Q9UBB5 1-411)

binding [1]: binds
Molecule: CHD8, human, endogenous (from UniProt Q9HCK8 1-2581)

binding [1]: binds
binding [2]: binds
Molecule: IPO8, human, endogenous (from UniProt O15397 1-1037)

binding [1]: binds
Molecule: CHD5, human, endogenous (from UniProt Q8TDI0 1-1954)

binding [3]: binds
binding [4]: binds
B1: MTA3, human, endogenous, Q9BTC8 1-594 (protein)
chain: MAANMYRVGDYVYFENSSSNPYLIRRIEELNKTASGNVEAKVVCFYRRRDISNTLIMLADKHAKEIEEESETTVEADLTDKQKHQLKHRELFLSRQYESLPATHIRGKCSVALLNETESVLSYLDKEDTFFYSLVYDPSLKTLLADKGEIRVGPRYQADIPEMLLEGESDEREQSKLEVKVWDPNSPLTDRQIDQFLVVARAVGTFARALDCSSSVRQPSLHMSAAAASRDITLFHAMDTLYRHSYDLSSAISVLVPLGGPVLCRDEMEEWSASEASLFEEALEKYGKDFNDIRQDFLPWKSLTSIIEYYYMWKTTDRYVQQKRLKAAEAESKLKQVYIPTYSKPNPNQISTSNGKPGAVNGAVGTTFQPQNPLLGRACESCYATQSHQWYSWGPPNMQCRLCAICWLYWKKYGGLKMPTQSEEEKLSPSPTTEDPRVRSHVSRQAMQGMPVRNTGSPKSAVKTRQAFFLHTTYFTKFARQVCKNTLRLRQAARRPFVAINYAAIRAEYADRHAELSGSPLKSKSTRKPLACIIGYLEIHPAKKPNVIRSTPSLQTPTTKRMLTTPNHTSLSILGKRNYSHHNGLDELTCCVSD

Second part, the molecule before the results:

Molecule: WDR82, human, endogenous (from UniProt Q6UXN9 1-313)
binding [1]: binds

Molecule: CHD3 (chromodomain helicase DNA-binding protein 3), human, endogenous (from UniProt Q12873 1-2000)
binding [1]: binds

Molecule: RBBP4, human, endogenous (from UniProt Q09028 1-425)
binding [1]: binds

B2: ADNP, human, endogenous (protein, UniProt Q9H2P0 1-1102)
chain: MFQLPVNNLGSLRKARKTVKKILSDIGLEYCKEHIEDFKQFEPNDFYLKNTTWEDVGLWDPSLTKNQDYRTKPFCCSACPFSSKFFSAYKSHFRNVHSEDFENRILLNCPYCTFNADKKTLETHIKIFHAPNASAPSSSLSTFKDKNKNDGLKPKQADSVEQAVYYCKKCTYRDPLYEIVRKHIYREHFQHVAAPYIAKAGEKSLNGAVPLGSNAREESSIHCKRCLFMPKSYEALVQHVIEDHERIGYQVTAMIGHTNVVVPRSKPLMLIAPKPQDKKSMGLPPRIGSLASGNVRSLPSQQMVNRLSIPKPNLNSTGVNMMSSVHLQQNNYGVKSVGQGYSVGQSMRLGLGGNAPVSIPQQSQSVKQLLPSGNGRSYGLGSEQRSQAPARYSLQSANASSLSSGQLKSPSLSQSQASRVLGQSSSKPAAAATGPPPGNTSSTQKWKICTICNELFPENVYSVHFEKEHKAEKVPAVANYIMKIHNFTSKCLYCNRYLPTDTLLNHMLIHGLSCPYCRSTFNDVEKMAAHMRMVHIDEEMGPKTDSTLSFDLTLQQGSHTNIHLLVTTYNLRDAPAESVAYHAQNNPPVPPKPQPKVQEKADIPVKSSPQAAVPYKKDVGKTLCPLCFSILKGPISDALAHHLRERHQVIQTVHPVEKKLTYKCIHCLGVYTSNMTASTITLHLVHCRGVGKTQNGQDKTNAPSRLNQSPSLAPVKRTYEQMEFPLLKKRKLDDDSDSPSFFEEKPEEPVVLALDPKGHEDDSYEARKSFLTKYFNKQPYPTRREIEKLAASLWLWKSDIASHFSNKRKKCVRDCEKYKPGVLLGFNMKELNKVKHEMDFDAEWLFENHDEKDSRVNASKTADKKLNLGKEDDSSSDSFENLEEESNESGSPFDPVFEVEPKISNDNPEEHVLKVIPEDASESEEKLDQKEDGSKYETIHLTEEPTKLMHNASDSEVDQDDVVEWKDGASPSESGPGSQQVSDFEDNTCEMKPGTWSDESSQSEDARSSKPAAKKKATMQGDREQLKWKNSSYGKVEGFWSKDQSQWKNASENDERLSNPQIEWQNSTIDSEDGEQFDNMTDGVAEPMHGSLAGVKLSSQQA
binding [1]: binds
